Values after ≈ are worked out from the molar mass of the structure shown.
Test system: primary human fibroblast cells IMR-90
Assay: In vitro cytotoxicity assay, alamar blue reduction
Format: cell-based
Details: IMR-90, miconazole alone

For `Clc1ccc(COC(Cn2ccnc2)c2ccc(Cl)cc2Cl)c(Cl)c1` (stereo not shown) [miconazole], which EC50 is on record?
Its EC50 is 16 µg/mL (≈ 38.4 µM).

From patent US20120252820A1, “METHODS OF TREATING FUNGAL INFECTIONS” (NORTHEASTERN UNIVERSITY, priority 2008, published 2012)
